Measured values published in the supplement of paper PMC4604168 (melanoma cell lines).
The other results are listed elsewhere or left out. Single values are uncertain, as repeats are few or missing.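 Imaging used 1,536-well plates; nuclei positive for cleaved PARP by antibody were divided by total DNA-stained nuclei to yield the apoptosis fraction. Doses for screening kept most cells viable, and cell lines differ markedly in resting and induced cleaved-PARP levels.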

Legend:
Experiment in all cases: cleaved PARP positive nuclei fraction relative to DMSO control; melanoma cells; higher = more apoptosis
Conditions in all cases: library dose: low library concentration; 72 h
[1] = system: WM115
[2] = system: WM1716
[3] = system: WM1745
[4] = system: WM3526
[5] = system: WM3619
[6] = system: WM451Lu

| Structure (SMILES) | cleaved PARP positive nuclei fraction [1] [%] | cleaved PARP positive nuclei fraction [2] [%] | cleaved PARP positive nuclei fraction [3] [%] | cleaved PARP positive nuclei fraction [4] [%] | cleaved PARP positive nuclei fraction [5] [%] | cleaved PARP positive nuclei fraction [6] [%] |
| --- | --- | --- | --- | --- | --- | --- |
| OCc1c[nH]c2ccccc12 [Indole-3-carbinol] + COc1ccc(Cl)c(Nc2nc3ccccc3nc2NS(=O)(=O)c2cccc(NC(=O)C(C)(C)N)c2)c1 [XL147] (first compound 0.8 µM, partner dose 0.8 µM) | 117 | 76.2 | 80.8 | 814 | 77.5 | 114 |
| CC(=O)c1c(C)c2cnc(Nc3ccc(N4CCNCC4)cn3)nc2n(C2CCCC2)c1=O [palbociclib] + NCC(=O)Nc1ccc(-n2nc(C(F)(F)F)cc2-c2ccc3c(ccc4ccccc43)c2)cc1 [OSU03012] (first compound 0.04 µM, partner dose 1 µM) | 199 | 99.7 | 120 | 74.8 | 129 | 235 |
| CC1(C)NC(=O)N(c2ccc([N+](=O)[O-])c(C(F)(F)F)c2)C1=O [nilutamide] + COc1ccc(COc2ccc(Cc3cnc(N)nc3N)cc2OC)cc1 [GW2580] (first compound 1 µM, partner dose 1 µM) | 123 | 85.5 | 111 | 176 | 102 | 55.8 |
| Nc1cccc2c1CN(C1CCC(=O)NC1=O)C2=O (stereo not given) [lenalidomide] + Oc1nc(-c2ccc(C(F)(F)F)cc2)nc2c1CSCC2 [XAV939] (first compound 1 µM, partner dose 2 µM) | 137 | 174 | 114 | 63.2 | 127 | 140 |
| Cc1nc(Nc2ncc(C(=O)Nc3c(C)cccc3Cl)s2)cc(N2CCN(CCO)CC2)n1 [dasatanib] + CCCCCCCCCCCC1=C(O)C(=O)C=C(O)C1=O [Embelin] (first compound 0.004 µM, partner dose 1.2 µM) | 110 | 84.1 | 158 | 36.7 | 83 | 99.3 |
| C#Cc1cccc(Nc2ncnc3cc(OCCOC)c(OCCOC)cc23)c1 [erlotinib] + COc1cc2ncnc(Nc3ccc(Oc4ccccc4)cc3)c2cc1OC [SrcI1] (first compound 0.8 µM, partner dose 2 µM) | 176 | 63 | 142 | 80.1 | 82.8 | 145 |
| Clc1ccc(Nc2nnc(Cc3ccncc3)c3ccccc23)cc1 [vatalanib] + OCCn1cc(-c2cnc3nnn(Cc4ccc5ncccc5c4)c3n2)cn1 [PF04217903] (first compound 2 µM, partner dose 1 µM) | 47.7 | 19.4 | 71.7 | 141 | 167 | 166 |
| C=CCn1c(=O)c2cnc(Nc3ccc(N4CCN(C)CC4)cc3)nc2n1-c1cccc(C(C)(C)O)n1 + O=C(Nc1cccc(Cl)c1)Nc1ncc(CCNc2ncnc3ccsc23)s1 [SNS314] (first compound 0.02 µM, partner dose 0.0008 µM) | 336 | 69.8 | 112 | 88.2 | 102 | 84.2 |
| COCC[n+]1c2c(n(Cc3cnccn3)c1C)C(=O)c1ccccc1C2=O + C[C@]1(c2nc3c(C(N)=O)cccc3[nH]2)CCCN1 [Veliparib] (first compound 0.0004 µM, partner dose 1.4 µM) | 134 | 91.3 | 226 | 43.6 | 106 | 60.6 |
| CC(=O)c1c(C)c2cnc(Nc3ccc(N4CCNCC4)cn3)nc2n(C2CCCC2)c1=O [palbociclib] + O=C(Nc1ccccc1)c1cc([N+](=O)[O-])ccc1Cl [GW9662] (first compound 0.04 µM, partner dose 2 µM) | 61.7 | 205 | 107 | 114 | 191 | 77.4 |
| Cc1nc(Nc2ncc(C(=O)Nc3c(C)cccc3Cl)s2)cc(N2CCN(CCO)CC2)n1 [dasatanib] + COc1cc2ncnc(Nc3ccc(Oc4ccccc4)cc3)c2cc1OC [SrcI1] (first compound 0.004 µM, partner dose 2 µM) | 92.5 | 344 | 285 | 64.1 | 90.9 | 96.8 |
| Cc1nc(Nc2ncc(C(=O)Nc3c(C)cccc3Cl)s2)cc(N2CCN(CCO)CC2)n1 [dasatanib] + N#Cc1c(O)c2c(-c3ccc(-c4ccccc4O)cc3)csc2[nH]c1=O [A769662] (first compound 0.004 µM, partner dose 2 µM) | 214 | 110 | 189 | 67.5 | 119 | 48.1 |
| C=CCNC1=C2C[C@@H](C)C[C@H](OC)[C@H](O)[C@@H](C)/C=C(\C)[C@H](OC(N)=O)[C@@H](OC)/C=C\C=C(/C)C(=O)NC(=CC1=O)C2=O [Tanespimycin] + COc1cc(Nc2ncc(F)c(Nc3ccc4c(n3)NC(=O)C(C)(C)O4)n2)cc(OC)c1OC [Tamatinib] (first compound 0.002 µM, partner dose 0.4 µM) | 189 | 124 | 145 | 133 | 116 | 120 |
| Nc1cccc2c1CN(C1CCC(=O)NC1=O)C2=O (stereo not given) [lenalidomide] + O=C(O)C(=O)Nc1sc2c(c1C(=O)O)CCNC2 [TCS401] (first compound 1 µM, partner dose 1.66667 µM) | 94.5 | 76.4 | 106 | 64 | 86.4 | 75.3 |
| O=C(CCCCCCC(=O)Nc1ccccc1)NO [vorinostat] + CO[C@@H]1[C@H](N(C)C(=O)c2ccccc2)C[C@H]2O[C@]1(C)n1c3ccccc3c3c4c(c5c6ccccc6n2c5c31)C(=O)NC4 [Midostaurin] (first compound 0.08 µM, partner dose 0.08 µM) | 198 | 133 | 110 | 64.2 | 111 | 140 |
| Clc1ccc(Nc2nnc(Cc3ccncc3)c3ccccc23)cc1 [vatalanib] + COC(=O)c1sccc1S(=O)(=O)Nc1ccc(Nc2ccccc2)cc1OC [GSK0660] (first compound 2 µM, partner dose 1 µM) | 123 | 207 | 81.2 | 68.4 | 109 | 335 |
| Clc1ccc(Nc2nnc(Cc3ccncc3)c3ccccc23)cc1 [vatalanib] + c1cc(-c2cnn3cc(-c4ccc(OCCN5CCCCC5)cc4)cnc23)ccn1 [Dorsomorphin] (first compound 2 µM, partner dose 0.4 µM) | 56.3 | 87.9 | 128 | 71.2 | 77.9 | 407 |
| C[C@]1(c2nc3c(C(N)=O)cccc3[nH]2)CCCN1 [Veliparib] + COc1cc(N2CCC(N3CCN(C)CC3)CC2)ccc1Nc1ncc(Cl)c(Nc2ccccc2S(=O)(=O)C(C)C)n1 [NVP-TAE684] (first compound 1.4 µM, partner dose 0.08 µM) | 94.8 | 104 | 126 | 71.7 | 110 | 73.3 |
| Cc1cc(N2CCOCC2)cc2[nH]c(-c3c(NC[C@@H](O)c4cccc(Cl)c4)cc[nH]c3=O)nc12 + COc1ccc2c(c1)CCC1C2CCC2(C)C(NCCCCCCN3C(=O)C=CC3=O)CCC12 [U73122] (first compound 0.2 µM, partner dose 0.4 µM) | 131 | 26.4 | 143 | 61.2 | 84.2 | 64.5 |
| NC(=O)Nc1cc(-c2cccc(F)c2)sc1C(=O)N[C@H]1CCCNC1 + c1cc(-c2cnn3cc(-c4ccc(OCCN5CCCCC5)cc4)cnc23)ccn1 [Dorsomorphin] (first compound 0.02 µM, partner dose 0.4 µM) | 148 | 70.2 | 113 | 84.5 | 151 | 99.3 |
| CC(=O)c1c(C)c2cnc(Nc3ccc(N4CCNCC4)cn3)nc2n(C2CCCC2)c1=O [palbociclib] + O=C(CCCCCCC(=O)Nc1ccccc1)NO [vorinostat] (first compound 0.04 µM, partner dose 0.08 µM) | 209 | 133 | 131 | 211 | 112 | 130 |
| Nc1cccc2c1CN(C1CCC(=O)NC1=O)C2=O (stereo not given) [lenalidomide] + CC1(C)NC(=O)N(c2ccc([N+](=O)[O-])c(C(F)(F)F)c2)C1=O [nilutamide] (first compound 1 µM, partner dose 1 µM) | 108 | 45.8 | 102 | 187 | 107 | 84.8 |
| Nc1cccc2c1CN(C1CCC(=O)NC1=O)C2=O (stereo not given) [lenalidomide] + CCN(CC)CCCCNc1ncc2cc(-c3cc(OC)cc(OC)c3)c(NC(=O)NC(C)(C)C)nc2n1 [PD173074] (first compound 1 µM, partner dose 0.1 µM) | 95.5 | 70.7 | 107 | 72 | 74 | 570 |
| CC(C)(C)c1cnc(CSc2cnc(NC(=O)C3CCNCC3)s2)o1 + Oc1nc(-c2ccc(C(F)(F)F)cc2)nc2c1CSCC2 [XAV939] (first compound 0.01 µM, partner dose 2 µM) | 37.3 | 82 | 134 | 129 | 115 | 58.7 |
| Nc1cccc2c1CN(C1CCC(=O)NC1=O)C2=O (stereo not given) [lenalidomide] + O=C(O)c1ccc(-c2c[nH]c3ncc(-c4ccccc4)cc23)cc1C1CCCC1 [GSK650394] (first compound 1 µM, partner dose 0.16 µM) | 75.8 | 94.6 | 105 | 256 | 92.8 | 65.9 |

5 entries from above, set out differently.
Structure (SMILES)	cleaved PARP positive nuclei fraction [1] [%]	cleaved PARP positive nuclei fraction [2] [%]	cleaved PARP positive nuclei fraction [3] [%]	cleaved PARP positive nuclei fraction [4] [%]	cleaved PARP positive nuclei fraction [5] [%]	cleaved PARP positive nuclei fraction [6] [%]
OCc1c[nH]c2ccccc12 [Indole-3-carbinol] + COc1ccc(Cl)c(Nc2nc3ccccc3nc2NS(=O)(=O)c2cccc(NC(=O)C(C)(C)N)c2)c1 [XL147] (first compound 0.8 µM, partner dose 0.8 µM)	117	76.2	80.8	814	77.5	114
Clc1ccc(Nc2nnc(Cc3ccncc3)c3ccccc23)cc1 [vatalanib] + OCCn1cc(-c2cnc3nnn(Cc4ccc5ncccc5c4)c3n2)cn1 [PF04217903] (first compound 2 µM, partner dose 1 µM)	47.7	19.4	71.7	141	167	166
C=CCNC1=C2C[C@@H](C)C[C@H](OC)[C@H](O)[C@@H](C)/C=C(\C)[C@H](OC(N)=O)[C@@H](OC)/C=C\C=C(/C)C(=O)NC(=CC1=O)C2=O [Tanespimycin] + COc1cc(Nc2ncc(F)c(Nc3ccc4c(n3)NC(=O)C(C)(C)O4)n2)cc(OC)c1OC [Tamatinib] (first compound 0.002 µM, partner dose 0.4 µM)	189	124	145	133	116	120
NC(=O)Nc1cc(-c2cccc(F)c2)sc1C(=O)N[C@H]1CCCNC1 + c1cc(-c2cnn3cc(-c4ccc(OCCN5CCCCC5)cc4)cnc23)ccn1 [Dorsomorphin] (first compound 0.02 µM, partner dose 0.4 µM)	148	70.2	113	84.5	151	99.3
CC(C)(C)c1cnc(CSc2cnc(NC(=O)C3CCNCC3)s2)o1 + Oc1nc(-c2ccc(C(F)(F)F)cc2)nc2c1CSCC2 [XAV939] (first compound 0.01 µM, partner dose 2 µM)	37.3	82	134	129	115	58.7
